Source: US8404844B2, “Perylene semiconductors and methods of preparation and use thereof” (BASF SE, priority 2008, dated 2013)

Assay: FET (thin-film transistor) device fabrication and measurements
Settings: top-contact TFT on Si/SiO2, ambient atmosphere; for Ion:Ioff, Spin-Coating / Mobility, Spin-Coating: spin-coated film; for Mobility, Spin-Coating / Mobility, Vapor Deposition: saturation regime; for Ion:Ioff, Vapor Deposition / Mobility, Vapor Deposition: vacuum vapor-deposited film

CCCC(CC)N1C(=O)c2ccc3c4c(C#N)cc5c6c(ccc(c7c(C#N)cc(c2c37)C1=O)c64)C(=O)N(C(CC)CCC)C5=O (centres unmarked) [PDI1EB-CN2, N,N′-bis(1-ethylbutyl)-1,7-dicyanoperylene-3,4:9,10-bis(dicarboximide)]
Ion:Ioff, Spin-Coating: 10^5
Mobility, Spin-Coating: 0.005-0.01 cm^2/Vs
Ion:Ioff, Vapor Deposition: 10^8
Mobility, Vapor Deposition: 0.1-0.5 cm^2/Vs

CCC(CC)N1C(=O)c2ccc3c4c(C#N)cc5c6c(ccc(c7c(C#N)cc(c2c37)C1=O)c64)C(=O)N(C(CC)CC)C5=O [PDI1EPr-CN2, N,N′-bis(1-ethylpropyl)-1,7-dicyanoperylene-3,4:9,10-bis(dicarboximide)]
Ion:Ioff, Spin-Coating: 10^5
Mobility, Spin-Coating: 0.005-0.01 cm^2/Vs
Ion:Ioff, Vapor Deposition: 10^7
Mobility, Vapor Deposition: 0.01-0.1 cm^2/Vs

CC(C)CC(C)N1C(=O)c2ccc3c4c(C#N)cc5c6c(ccc(c7c(C#N)cc(c2c37)C1=O)c64)C(=O)N(C(C)CC(C)C)C5=O (centres unmarked) [PDI1M3MB-CN2, N,N′-bis(1,3-dimethylbutyl)-1,7-dicyanoperylene-3,4:9,10-bis(dicarboximide)]
Ion:Ioff, Spin-Coating: 10^7
Mobility, Spin-Coating: 0.03-0.2 cm^2/Vs
Ion:Ioff, Vapor Deposition: 10^7
Mobility, Vapor Deposition: 0.3-0.5 cm^2/Vs

CCCC(C)N1C(=O)c2ccc3c4c(C#N)cc5c6c(ccc(c7c(C#N)cc(c2c37)C1=O)c64)C(=O)N(C(C)CCC)C5=O (centres unmarked) [PDI1MB-CN2, N,N′-bis(1-methylbutyl)-1,7-dicyanoperylene-3,4:9,10-bis(dicarboximide)]
Ion:Ioff, Spin-Coating: 10^5-10^7
Mobility, Spin-Coating: 0.03-0.1 cm^2/Vs
Ion:Ioff, Vapor Deposition: 10^9-10^10
Mobility, Vapor Deposition: 0.8-2.0 cm^2/Vs

CCCCCC(C)N1C(=O)c2ccc3c4c(C#N)cc5c6c(ccc(c7c(C#N)cc(c2c37)C1=O)c64)C(=O)N(C(C)CCCCC)C5=O (centres unmarked) [PDI1MH-CN2, N,N′-bis(1-methylhexyl)-1,7-dicyanoperylene-3,4:9,10-bis(dicarboximide)]
Ion:Ioff, Spin-Coating: 10^6-10^8
Mobility, Spin-Coating: 0.07-0.2 cm^2/Vs
Ion:Ioff, Vapor Deposition: 10^8
Mobility, Vapor Deposition: 0.1-0.4 cm^2/Vs

CCCCC(C)N1C(=O)c2ccc3c4c(C#N)cc5c6c(ccc(c7c(C#N)cc(c2c37)C1=O)c64)C(=O)N(C(C)CCCC)C5=O (centres unmarked) [PDI1MP-CN2, N,N′-bis(1-methylpentyl)-1,7-dicyanoperylene-3,4:9,10-bis(dicarboximide)]
Ion:Ioff, Spin-Coating: 10^5-10^8
Mobility, Spin-Coating: 0.03-0.2 cm^2/Vs
Ion:Ioff, Vapor Deposition: 10^8
Mobility, Vapor Deposition: 0.3-0.8 cm^2/Vs

CCC(C)N1C(=O)c2ccc3c4c(C#N)cc5c6c(ccc(c7c(C#N)cc(c2c37)C1=O)c64)C(=O)N(C(C)CC)C5=O (centres unmarked) [PDI1MPr-CN2, N,N′-bis(1-methylpropyl)-1,7-dicyanoperylene-3,4:9,10-bis(dicarboximide)]
Ion:Ioff, Spin-Coating: 10^5-10^7
Mobility, Spin-Coating: 0.02-0.1 cm^2/Vs
Ion:Ioff, Vapor Deposition: 10^7
Mobility, Vapor Deposition: 0.2-0.8 cm^2/Vs

CCCCC(CC)CN1C(=O)c2ccc3c4c(C#N)cc5c6c(ccc(c7c(C#N)cc(c2c37)C1=O)c64)C(=O)N(CC(CC)CCCC)C5=O (centres unmarked) [PDI2EH-CN2, N,N′-bis(2-ethylhexyl)-1,7-dicyanoperylene-3,4:9,10-bis(dicarboximide), reference compound]
Ion:Ioff, Spin-Coating: 10^6-10^7
Mobility, Spin-Coating: 0.2-0.3 cm^2/Vs
Ion:Ioff, Vapor Deposition: 10^7-10^8
Mobility, Vapor Deposition: 0.1-0.3 cm^2/Vs

CCCCC(C)CN1C(=O)c2ccc3c4c(C#N)cc5c6c(ccc(c7c(C#N)cc(c2c37)C1=O)c64)C(=O)N(CC(C)CCCC)C5=O (centres unmarked) [PDI2MH-CN2, N,N′-bis(2-methylhexyl)-1,7-dicyanoperylene-3,4:9,10-bis(dicarboximide), reference compound]
Ion:Ioff, Spin-Coating: 10^6
Mobility, Spin-Coating: 0.01 cm^2/Vs
Ion:Ioff, Vapor Deposition: 10^7
Mobility, Vapor Deposition: 0.1-0.3 cm^2/Vs

CCCCCCCCN1C(=O)c2ccc3c4c(C#N)cc5c6c(ccc(c7c(C#N)cc(c2c37)C1=O)c64)C(=O)N(CCCCCCCC)C5=O [PDI8-CN2, N,N′-Bis(4-n-octyl)-1,7-dicyanoperylene-3,4:9,10-bis(dicarboximide), reference compound]
Ion:Ioff, Spin-Coating: 10^2-10^4
Mobility, Spin-Coating: 10^−5-10^−3 cm^2/Vs
Ion:Ioff, Vapor Deposition: 10^4-10^5
Mobility, Vapor Deposition: 0.01-0.2 cm^2/Vs

CC(C)=CCC[C@H](C)CCN1C(=O)c2ccc3c4c(C#N)cc5c6c(ccc(c7c(C#N)cc(c2c37)C1=O)c64)C(=O)N(CC[C@@H](C)CCC=C(C)C)C5=O [PDICitr-CN2, N,N′-bis[(3S)-3,7-dimethyl-6-octenyl]-1,7-dicyanoperylene-3,4:9,10-bis(dicarboximide), reference compound]
Ion:Ioff, Spin-Coating: 10^1-10^2
Mobility, Spin-Coating: 10^−4-10^−3 cm^2/Vs
Ion:Ioff, Vapor Deposition: 10^3-10^5
Mobility, Vapor Deposition: 0.01-0.1 cm^2/Vs
